# Results deposited as PubChem BioAssay AID686938 (Drosophila RNAi Screening Center, 2013).
# Purpose: 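Fly genes required for calcium entry once internal stores are emptied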 (primary screen)
# Cell system: Drosophila S2R+ cells
# Knock-down reagent: long dsRNA against Drosophila genes, about 0.25 µg dsRNA per well, roughly 10,000 cells
# Timing: 5 days of knock-down before the calcium assay
# Conditions: thapsigargin (SERCA pump blocker) to empty calcium stores; entry signal taken 4 min after adding it
# Read-out: 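Per-well fluo-4 fluorescence in two replicates, unnormalised, measured in resting cells and 4 min after store depletion by the SERCA blocker thapsigargin; ratio of the two present in few wells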
# Scale: calcium entry signal: higher = stronger calcium signal after store depletion; resting calcium signal: higher = higher resting calcium signal
# Hit rule: 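Hit if the duplicate-averaged plate z-score for entry over resting signal is under −3; wells with weak total dye signal (Fmax z < −2) or more than 5 off-targets removed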
# Calls: active = strongly reduced calcium entry; inactive = no strong reduction
# The deposit covers about 23,000 reagents; shown is a random part of those with a known target gene and a result. Of all reagents, 75 (0.33%) are marked active. 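Raw plate signals without normalisation; calls rest on plate z-scores that were not deposited; ratio present for only 364 wells.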 A number with no mark means an inactive call. The record does not give: the dose of the treatment.
The first 3 records, ahead of the listing:
Target gene,DRSC id,"calcium entry signal, replicate 1 (fluorescence units)","calcium entry signal, replicate 2 (fluorescence units)","resting calcium signal, replicate 1 (fluorescence units)","resting calcium signal, replicate 2 (fluorescence units)"
CG5885,DRSC02910,4.71e7,,2.01e7,
CG8229,DRSC07114,5.72e7,4.37e7,2.46e7,1.93e7
Surf4,DRSC16875,3.39e7,5.28e7,1.62e7,5.86e7

The list itself, from the first entry:
Target gene,DRSC id,"calcium entry signal, replicate 1 (fluorescence units)","calcium entry signal, replicate 2 (fluorescence units)","resting calcium signal, replicate 1 (fluorescence units)","resting calcium signal, replicate 2 (fluorescence units)"
CG5885,DRSC02910,4.71e7,,2.01e7,
CG8229,DRSC07114,5.72e7,4.37e7,2.46e7,1.93e7
Surf4,DRSC16875,3.39e7,5.28e7,1.62e7,5.86e7
CG11714,DRSC09857,4.02e7,3.09e7,2.56e7,1.48e7
CG30197,DRSC22394,3.27e7,2.79e7,1.58e7,1.15e7
san,DRSC07695,3.05e7,2.66e7,1.83e7,1.55e7
Rilpl,DRSC18494,3.12e7,3.56e7,1.40e7,1.58e7
Bsg,DRSC01010,3.32e7,3.83e7,1.88e7,1.79e7
Bsg,DRSC01011,4.13e7,5.08e7,3.02e7,3.98e7
CG7794,DRSC16313,3.57e7,4.02e7,4.65e7,1.75e7
bug,DRSC07137,3.01e7,2.29e7,1.42e7,1.46e7
Men,DRSC12924,3.67e7,3.85e7,2.18e7,1.96e7
Men,DRSC16738,3.78e7,5.43e7,1.87e7,2.69e7
Men,DRSC22694,2.73e7,2.81e7,1.42e7,1.13e7
CG9391,DRSC11858,2.12e7,3.25e7,1.14e7,1.49e7
CG13231,DRSC06351,1.95e7,3.89e7,1.04e7,1.52e7
MFS15,DRSC06523,4.30e7,4.35e7,1.90e7,2.16e7
CG15550,DRSC15088,3.63e7,6.21e7,1.94e7,2.65e7
Debcl,DRSC04965,4.86e7,,2.39e7,
Cpr49Ab,DRSC05341,5.01e7,3.90e7,2.33e7,1.63e7
Rpn10,DRSC11876,2.26e7,4.25e7,1.30e7,2.15e7
CG6830,DRSC16124,3.69e7,4.18e7,1.79e7,2.26e7
HmgD,DRSC04619,2.15e7,,1.15e7,
Nelf-E,DRSC10567,3.06e7,4.03e7,1.51e7,1.88e7
CG6614,DRSC02974,5.23e7,,2.41e7,
mTerf3,DRSC11759,3.93e7,4.46e7,1.90e7,3.15e7
CG43066,DRSC06927,4.74e7,4.44e7,2.01e7,2.27e7
CG1231,DRSC08267,4.04e7,4.11e7,1.95e7,1.67e7
CG34168,DRSC01938,5.27e7,3.30e7,2.38e7,1.65e7
lncRNA:CR43498,DRSC17621,4.11e7,3.39e7,1.81e7,1.37e7
CG34284,DRSC14773,1.46e7,3.52e7,3.46e7,1.38e7
Uros2,DRSC16505,3.02e7,5.57e7,1.49e7,6.30e7
CR30409,DRSC22058,3.10e7,4.42e7,1.54e7,2.45e7
CG14958,DRSC08417,2.73e7,2.62e7,1.73e7,1.38e7
BobA,DRSC09889,5.09e7,6.76e7,2.37e7,2.66e7
Gp210,DRSC04861,4.16e7,5.22e7,2.04e7,2.24e7
Gp210,DRSC04900,3.77e7,,1.96e7,
Ets96B,DRSC16127,3.18e7,3.78e7,1.66e7,1.76e7
CG30484,DRSC05457,4.87e7,5.31e7,2.56e7,2.23e7
CG6675,DRSC03735,4.91e7,5.39e7,2.39e7,2.37e7
COX7A,DRSC16514,3.99e7,1.95e7,1.99e7,1.11e7
CG31365,DRSC15610,3.70e7,3.75e7,1.79e7,1.69e7
CG6901,DRSC16129,5.01e7,5.97e7,2.29e7,6.76e7
udt,DRSC14214,4.57e7,2.98e7,2.15e7,1.38e7
CG13720,DRSC08329,2.14e7,3.11e7,1.19e7,1.51e7
CG32944,DRSC12138,3.72e7,5.27e7,1.65e7,2.13e7
CG32944,DRSC12341,3.13e7,5.94e7,1.45e7,2.16e7
Nle,DRSC00763,2.37e7,2.00e7,1.26e7,9.99e6
LanB1,DRSC03360,4.51e7,,2.42e7,
CG14839,DRSC14963,2.49e7,2.50e7,1.28e7,1.20e7
Hmgcl,DRSC02051,3.68e7,4.24e7,1.85e7,1.83e7
snRNP-U1-70K,DRSC03612,3.24e7,5.78e7,1.54e7,2.35e7
snRNP-U1-70K,DRSC22071,2.16e7,3.94e7,1.38e7,2.23e7
CG32087,DRSC10806,2.23e7,3.36e7,1.24e7,1.52e7
Edg78E,DRSC11863,2.17e7,3.21e7,1.04e7,1.62e7
CG13135,DRSC02232,3.22e7,4.42e7,1.41e7,1.92e7
RpL10,DRSC11947,1.08e7,1.52e7,7.69e6,9.85e6
mRpS21,DRSC12965,2.91e7,4.78e7,1.40e7,2.01e7
mRpS21,DRSC21357,2.90e7,4.54e7,1.56e7,1.75e7
